The test system of test [1] is total HDAC enzyme (HeLa extract). The experiment in a line: In vitro inhibition of total HDAC enzyme activity (HDAC Fluorimetric Assay/Drug Discovery Kit, BIOMOL). It counts as biochemical, human. As to the method:
Measurement of in vitro inhibition of total HDAC enzyme activity:
The in vitro inhibition of total HDAC enzyme was determined by HDAC Fluorimetric Assay/Drug Discovery Kit (BIOMOL) according to manufacture's instruction. • 1. Add Assay buffer, diluted trichostatin A or test inhibitor to appropriate wells of the microtiter plate. Following table lists examples of various assay types and the additions required for each test.
• 2. Add diluted HeLa extract or other HDAC sample to all wells except those that are to be “No Enzyme Controls” (Blank). • 3. Allow diluted Fluor de LyS™ Substrate and the samples in the microtiter plate to equilibrate to assay temperature (25° C.). • 4. Initiate HDAC reactions by adding diluted substrate (25 μl) to each well and mixing thoroughly. • 5. Allow HDAC reactions to proceed for desired length of time and then stop them by addition of Fluor de Lys™ Developer (50 μl). Incubate plate at room temperature (25° C.) for 10-15 min. • 6. Read samples in a microtiter-plate reading fluorimeter capable of excitation at a wavelength in the range 350-380 nm and detection of emitted light in the range 440-460 nm.

The target in test [2] is T1, HDAC6 (α-tubulin acetylation) (Homo sapiens, UniProt Q9UBN7).
T1 construct: endogenous in cells; host or cells: HeLa
T1 sequence (Q9UBN7 1-1215): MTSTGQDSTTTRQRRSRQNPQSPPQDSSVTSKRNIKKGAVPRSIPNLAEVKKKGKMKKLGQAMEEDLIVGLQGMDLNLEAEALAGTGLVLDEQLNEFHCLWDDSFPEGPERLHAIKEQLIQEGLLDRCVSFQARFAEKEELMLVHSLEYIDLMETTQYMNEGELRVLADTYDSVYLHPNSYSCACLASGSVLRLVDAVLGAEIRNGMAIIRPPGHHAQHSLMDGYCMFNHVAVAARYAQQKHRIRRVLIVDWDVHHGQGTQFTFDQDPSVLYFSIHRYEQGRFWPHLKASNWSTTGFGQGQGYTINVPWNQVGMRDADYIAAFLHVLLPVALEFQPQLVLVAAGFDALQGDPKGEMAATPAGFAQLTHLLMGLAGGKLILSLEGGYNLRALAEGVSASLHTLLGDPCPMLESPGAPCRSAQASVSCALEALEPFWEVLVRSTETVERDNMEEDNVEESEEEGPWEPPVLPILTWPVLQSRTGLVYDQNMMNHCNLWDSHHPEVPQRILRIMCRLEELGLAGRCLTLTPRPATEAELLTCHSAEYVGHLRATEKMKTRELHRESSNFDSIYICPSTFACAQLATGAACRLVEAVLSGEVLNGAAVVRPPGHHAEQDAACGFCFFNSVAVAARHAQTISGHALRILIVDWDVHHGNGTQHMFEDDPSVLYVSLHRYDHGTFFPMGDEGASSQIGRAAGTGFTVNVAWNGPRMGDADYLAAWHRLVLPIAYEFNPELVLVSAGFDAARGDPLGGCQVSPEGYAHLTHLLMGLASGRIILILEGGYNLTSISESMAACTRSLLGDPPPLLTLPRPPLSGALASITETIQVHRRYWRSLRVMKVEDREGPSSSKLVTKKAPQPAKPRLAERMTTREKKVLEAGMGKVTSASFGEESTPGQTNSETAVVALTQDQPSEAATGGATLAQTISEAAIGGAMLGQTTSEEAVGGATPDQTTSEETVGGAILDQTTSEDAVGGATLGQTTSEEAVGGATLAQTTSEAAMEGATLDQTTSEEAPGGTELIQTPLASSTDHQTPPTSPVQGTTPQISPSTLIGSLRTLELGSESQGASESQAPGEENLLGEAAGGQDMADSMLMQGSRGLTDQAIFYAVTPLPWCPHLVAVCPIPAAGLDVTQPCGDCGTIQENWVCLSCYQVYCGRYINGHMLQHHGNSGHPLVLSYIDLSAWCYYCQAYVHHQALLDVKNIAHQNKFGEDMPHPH
Put plainly: ELISA assay of acetylation of α-tubulin in HeLa cells. The test is classed as cell-based. The note with it: M-HeLa, 24 hours. As to the method: (§1) Measurement of acetylation activity in cells on substrates:
ELISA assay of acetylation of α-tubulin
(§2) This assay is used to measure in vivo inhibition of HDAC6 in a cytoblot assay. Materials and Reagent: • 1. 24-well tissue culture • 2. DMEM Medium containing 10% FBS • 3. 96-well white plate • 4. HeLa cell line • 5. M-PER Mammalian Protein Extraction Reagent (Pierce) • 6. Bradford assay reagent • 7. Anti-acetyl-tubulin (Upstate) • 8. HRP-labeled anti-mouse IgG (Upstate) • 9. Coating Buffer: 15 mM Na2CO3, 35 mM NaHCO3 (pH 9.6) • 10. 10×PBS: 0.58 M Na2HPO4, 0.17M NaH2PO4, 0.68M NaCl (pH 7.4) • 11. Wash Buffer:1×PBS containing 0.05% Tween-20 (PBST) • 12. Blocking Buffer:10 mg/ml bocine serum albumin (BSA) in PBS • 13. Antibody Dilution Buffer: 5 mg/ml BSA in PBST • 14. Enhanced chemiluminescence (ECL) (Amersham)
Procedure for performing the assay in 96-well plate: • 1. HeLa cells were seeded at a density of 60000 cells/500 μl/well in 24-well plate and incubated at 37° C. for 24 hours. • 2. Compounds were added and incubated for 24 hours at 37° C. • 3. Culture medium was removed, then washes the cells twice with ice-cold PBS. • 4. Add 100 μl/well of Protein Extraction Reagent and gently shake the mixture for 5 minutes. • 5. Collect the lysate to a 96-well plate respectively. Determine the concentration of protein by Bradford assay. • 6. […] Add 50 μl/well of ECL mixture, then read the plates on the plate reader.
A general note: In an ELISA, binding on a coated surface is turned into a signal by an enzyme label.

In test [3] the test system is lysine acetylation. The experiment in a line: ELISA assay of acetylation of lysine in HeLa cells. The test is classed as cell-based. To be noted: Homo sapiens, M-HeLa, 24 hours.
Description: as §1
ELISA Assay of Acetylation of Lysine
This assay is used to measure in vivo inhibition of HDAC6 in a cytoblot assay.
as §2, with “Materials” for “This assay is used to measure in vivo inhibition of HDAC6 in a cytoblot assay. Materials”, “Acetylated-lysine polyclonal Antibody (Cell Signaling)” for “Anti-acetyl-tubulin (Upstate)”, “anti-rabbit” for “anti-mouse”, “0.58M” for “0.58 M”
Procedure for performing the assay in 96-well plate: • 1. HeLa cells were seeded at a density of 60000 cells/500 μl/well in 24-well plate and incubated at 37° C. for 24 hours. • 2. Compounds were added and incubated for 24 hours at 37° C. • 3. Culture medium was removed, then washes the cells twice with ice-cold PBS. • 4. Add 100 μl/well of Protein Extraction Reagent and gently shake the mixture for 5 minutes. • 5. Collect the lysate to a 96-well plate respectively. […] Add 50 μl/well of ECL mixture, then read the plates on the plate reader.

This note sets out measurements from patent US7863315B2, “2-indolinone derivatives as selective histone deacetylase inhibitors” (Shenzhen Chipscreen Biosciences, Ltd., priority 2008, dated 2011).

As a reminder, the fold induction is the ratio of treated to control signal. Read a high fold induction as a strong induction. As to `O=C(CCCCCCC(=O)Nc1ccccc1)NO` [SAHA, suberoylanilide hydroxamic acid, reference compound], in test [1], the “% of Inhibition on Total HDAC Enzyme at 30 μM” value was found to be 99%. In addition, the results for the fold induction at 10 µM in test [2] and in test [3] were 7.52 and 12.4, respectively.
